# According to patent publication US10266577B2, “GLP-1 derivatives, and uses thereof” (Novo Nordisk A/S, priority 2013, dated 2019):
# Chains of the proteins cited; added tags and fusions are not shown. Residues count along the entry.
# UniProt P43220, 24-463: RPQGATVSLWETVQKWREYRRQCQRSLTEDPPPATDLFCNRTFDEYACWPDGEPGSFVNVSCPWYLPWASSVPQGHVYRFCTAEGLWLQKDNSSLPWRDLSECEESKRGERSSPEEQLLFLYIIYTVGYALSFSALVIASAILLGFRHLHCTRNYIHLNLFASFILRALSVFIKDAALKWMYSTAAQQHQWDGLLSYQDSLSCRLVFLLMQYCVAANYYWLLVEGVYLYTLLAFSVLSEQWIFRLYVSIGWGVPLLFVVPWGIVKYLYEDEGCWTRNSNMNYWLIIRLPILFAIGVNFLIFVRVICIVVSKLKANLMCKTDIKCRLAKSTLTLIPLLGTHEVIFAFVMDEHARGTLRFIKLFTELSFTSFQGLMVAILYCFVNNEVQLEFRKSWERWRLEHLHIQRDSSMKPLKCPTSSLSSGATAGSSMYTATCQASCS
# For at least one compound, name, drawing or mass did not settle the structure.
# Columns and labels:
# db/db mice = assay: Pharmacodynamic single-dose study in db/db mice (blood glucose and body weight); assay type: in vivo, mouse; conditions: single dose 100 nmol/kg s.c., negative = reduction
# human GLP-1 receptor = target: T1, human GLP-1 receptor (Homo sapiens, UniProt P43220); assay: In vitro potency: CRE luciferase reporter gene assay in BHK cells expressing the human GLP-1 receptor; assay type: cell-based; conditions: whole cell reporter gene assay, BHK clone FCW467-12A/KZ10-1; averages of at least two replicates
# T1 construct: expressed in transfected cells; host or cells: BHK cells (parent line BHKTS13), clone FCW467-12A; membrane preparation
structure (smiles),measurement,setting,value
CC[C@H](C)[C@H](NC(=O)[C@H](Cc1ccccc1)NC(=O)[C@H](CCC(=O)O)NC(=O)[C@H](CCCNC(=N)N)NC(=O)[C@H](C)NC(=O)[C@H](C)NC(=O)[C@H](CCC(N)=O)NC(=O)[C@H](CCCCNC(=O)COCCOCCNC(=O)COCCOCCNC(=O)CC[C@H](NC(=O)[C@H]1CC[C@H](CNC(=O)CCCCCCCCCCCCCCCS(=O)(=O)O)CC1)C(=O)O)NC(=O)[C@H](CCC(=O)O)NC(=O)[C@H](CC(C)C)NC(=O)[C@H](Cc1ccc(O)cc1)NC(=O)[C@H](CCCCNC(=O)COCCOCCNC(=O)COCCOCCNC(=O)CC[C@H](NC(=O)[C@H]1CC[C@H](CNC(=O)CCCCCCCCCCCCCCCS(=O)(=O)O)CC1)C(=O)O)NC(=O)[C@H](CO)NC(=O)[C@@H](NC(=O)[C@H](CC(=O)O)NC(=O)[C@H](CO)NC(=O)[C@@H](NC(=O)[C@H](Cc1ccccc1)NC(=O)[C@@H](NC(=O)CNC(=O)[C@H](CCC(=O)O)NC(=O)C(C)(C)NC(=O)[C@@H](N)Cc1c[nH]cn1)[C@@H](C)O)[C@@H](C)O)C(C)C)C(=O)N[C@@H](CCCCNC(=O)COCCOCCNC(=O)COCCOCCNC(=O)CC[C@H](NC(=O)[C@H]1CC[C@H](CNC(=O)CCCCCCCCCCCCCCCS(=O)(=O)O)CC1)C(=O)O)C(=O)N[C@@H](Cc1c[nH]c2ccccc12)C(=O)N[C@@H](CC(C)C)C(=O)N[C@H](C(=O)N[C@@H](CCCNC(=N)N)C(=O)NCC(=O)N[C@@H](CCCNC(=N)N)C(=O)NCC(=O)O)C(C)C [Example 1],% change in blood glucose 48 h,db/db mice; 48 h vs basal level,−16.3%
same,% change in body weight 48 h,db/db mice; 48 h vs basal,−2.8%
same,EC50,human GLP-1 receptor,0.067 nM
